Measurements: publication PMC6737228

Columns and labels:
[1] = molecular target: T1, GST-TIMAP, recombinant purified (UniProt Q96T49); experiment: pull-down; recombinant purified GST-TIMAP immobilised on GSH beads, incubated in vitro with recombinant purified His-MLC2 (also after incubation in kinase buffer with or without MLCK); anti-MLC2 and anti-pMLC2 Western blot; both purified
T1 sequence: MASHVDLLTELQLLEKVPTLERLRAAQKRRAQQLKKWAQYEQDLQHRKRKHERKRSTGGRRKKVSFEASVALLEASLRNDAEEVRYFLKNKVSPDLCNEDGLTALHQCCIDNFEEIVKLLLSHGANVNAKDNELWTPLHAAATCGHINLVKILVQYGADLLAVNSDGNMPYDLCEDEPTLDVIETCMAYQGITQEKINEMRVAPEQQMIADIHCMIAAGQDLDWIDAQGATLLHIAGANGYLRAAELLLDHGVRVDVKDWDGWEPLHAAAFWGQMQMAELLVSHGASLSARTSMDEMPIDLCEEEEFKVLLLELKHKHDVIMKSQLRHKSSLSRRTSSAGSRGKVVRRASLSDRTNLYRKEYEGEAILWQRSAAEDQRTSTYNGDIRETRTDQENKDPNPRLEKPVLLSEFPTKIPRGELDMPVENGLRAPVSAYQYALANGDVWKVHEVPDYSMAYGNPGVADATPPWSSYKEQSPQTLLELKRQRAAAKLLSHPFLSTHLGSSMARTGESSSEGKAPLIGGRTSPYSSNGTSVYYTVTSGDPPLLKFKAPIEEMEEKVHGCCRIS

[2] = molecular target: T2, Transforming growth factor-β membrane associated protein (TIMAP), endogenous (human (endogenous in primary human glomerular ECs)) (UniProt Q96T49); experiment: co-IP; endogenous TIMAP immunoprecipitated from glomerular EC lysates with chicken anti-TIMAP IgY (control: nonimmune IgY), goat anti-chicken IgG beads, 4 °C; lysis buffer 50 mM Tris-HCl pH 7.5, 150 mM NaCl, 1.0% Nonidet P-40, 0.5% sodium deoxycholate; Western blot
T2 sequence: T1 sequence

binding [1] | binding [2] | Substance
binds |  | His-MLC2, recombinant purified
 | binds | myosin light chain 2 (MLC2), endogenous

No constants are given. Whether binding was seen depends on the method and setting. A result given as binding can be weak or reduced; the word gives no strength. For some assays here: Sequences can lack the tags named with a protein. For some assays here: In cells and extracts the contact can be indirect.
